Results from PMC4817527.
No constants are given. Whether binding was seen depends on the method and setting. Binding seen in cells or lysates may run through a third protein. Some entries that bind do so weakly or less than the wild type.

Amino acid sequences for entries named in this document (tags omitted). A change or cut given only in a name is not applied to a line headed by its entry. Chains listed by the source or under a name are the forms on record and can include a tag or linker.
UniProt Q09472: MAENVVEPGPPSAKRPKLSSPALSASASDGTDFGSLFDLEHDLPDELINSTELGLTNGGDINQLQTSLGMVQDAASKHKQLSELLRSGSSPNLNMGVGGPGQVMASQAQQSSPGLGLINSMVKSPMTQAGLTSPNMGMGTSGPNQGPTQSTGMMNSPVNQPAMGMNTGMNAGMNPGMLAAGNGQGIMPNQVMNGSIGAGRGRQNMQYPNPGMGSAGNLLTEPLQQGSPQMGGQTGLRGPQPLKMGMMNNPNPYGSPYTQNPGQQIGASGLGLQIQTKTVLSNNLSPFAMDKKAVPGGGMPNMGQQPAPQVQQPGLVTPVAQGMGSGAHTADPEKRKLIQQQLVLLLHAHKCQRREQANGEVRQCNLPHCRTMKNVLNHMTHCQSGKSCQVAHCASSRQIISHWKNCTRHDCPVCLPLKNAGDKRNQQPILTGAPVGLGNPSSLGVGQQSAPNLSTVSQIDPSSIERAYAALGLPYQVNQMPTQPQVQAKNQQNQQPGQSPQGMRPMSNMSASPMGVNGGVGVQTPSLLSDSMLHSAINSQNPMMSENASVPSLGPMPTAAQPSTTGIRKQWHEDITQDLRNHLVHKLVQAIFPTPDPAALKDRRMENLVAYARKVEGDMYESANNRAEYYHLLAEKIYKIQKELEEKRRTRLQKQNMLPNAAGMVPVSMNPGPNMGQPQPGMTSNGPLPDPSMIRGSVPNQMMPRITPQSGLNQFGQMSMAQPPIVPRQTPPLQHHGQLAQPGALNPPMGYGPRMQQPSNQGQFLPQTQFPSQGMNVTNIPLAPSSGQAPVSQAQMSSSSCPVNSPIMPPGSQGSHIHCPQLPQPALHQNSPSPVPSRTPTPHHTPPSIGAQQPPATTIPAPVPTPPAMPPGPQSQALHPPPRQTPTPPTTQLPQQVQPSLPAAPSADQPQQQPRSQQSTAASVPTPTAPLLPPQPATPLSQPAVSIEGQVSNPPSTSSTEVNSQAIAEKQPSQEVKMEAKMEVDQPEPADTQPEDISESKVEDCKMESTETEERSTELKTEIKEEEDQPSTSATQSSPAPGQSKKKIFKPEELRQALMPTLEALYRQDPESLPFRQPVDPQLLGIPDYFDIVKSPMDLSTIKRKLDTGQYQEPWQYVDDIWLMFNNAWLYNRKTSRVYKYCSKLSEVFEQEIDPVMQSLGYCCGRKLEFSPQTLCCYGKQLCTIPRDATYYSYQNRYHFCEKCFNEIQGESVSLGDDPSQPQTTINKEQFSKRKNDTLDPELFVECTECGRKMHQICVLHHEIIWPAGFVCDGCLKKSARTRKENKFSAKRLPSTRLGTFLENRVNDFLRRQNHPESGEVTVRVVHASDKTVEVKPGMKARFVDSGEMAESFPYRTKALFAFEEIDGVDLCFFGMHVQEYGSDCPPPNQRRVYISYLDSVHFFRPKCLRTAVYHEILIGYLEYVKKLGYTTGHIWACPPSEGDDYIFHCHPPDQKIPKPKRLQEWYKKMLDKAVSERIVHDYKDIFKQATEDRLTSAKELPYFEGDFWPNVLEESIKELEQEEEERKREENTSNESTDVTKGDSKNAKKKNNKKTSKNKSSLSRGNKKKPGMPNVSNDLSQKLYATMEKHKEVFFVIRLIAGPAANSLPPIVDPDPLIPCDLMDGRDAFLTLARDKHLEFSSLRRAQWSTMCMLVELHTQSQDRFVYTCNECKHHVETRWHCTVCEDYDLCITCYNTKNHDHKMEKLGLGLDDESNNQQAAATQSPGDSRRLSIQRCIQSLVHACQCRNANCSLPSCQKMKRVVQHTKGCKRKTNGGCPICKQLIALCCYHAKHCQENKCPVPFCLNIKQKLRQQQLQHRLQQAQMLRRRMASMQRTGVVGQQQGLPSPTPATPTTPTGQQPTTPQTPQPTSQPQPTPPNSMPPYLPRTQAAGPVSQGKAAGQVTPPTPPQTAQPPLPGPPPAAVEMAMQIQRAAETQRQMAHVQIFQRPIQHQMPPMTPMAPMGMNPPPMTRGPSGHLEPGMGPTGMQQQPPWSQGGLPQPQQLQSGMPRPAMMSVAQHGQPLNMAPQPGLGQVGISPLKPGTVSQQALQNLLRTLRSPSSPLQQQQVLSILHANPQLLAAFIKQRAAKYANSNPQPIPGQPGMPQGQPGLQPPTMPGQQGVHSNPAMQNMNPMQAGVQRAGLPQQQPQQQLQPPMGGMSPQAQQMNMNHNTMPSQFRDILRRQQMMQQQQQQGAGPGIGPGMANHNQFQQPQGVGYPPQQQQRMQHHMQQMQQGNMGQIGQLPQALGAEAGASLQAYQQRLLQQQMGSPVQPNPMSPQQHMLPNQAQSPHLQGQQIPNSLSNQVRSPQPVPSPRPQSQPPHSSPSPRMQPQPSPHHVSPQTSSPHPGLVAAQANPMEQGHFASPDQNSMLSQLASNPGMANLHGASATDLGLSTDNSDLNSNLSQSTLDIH
UniProt Q13547: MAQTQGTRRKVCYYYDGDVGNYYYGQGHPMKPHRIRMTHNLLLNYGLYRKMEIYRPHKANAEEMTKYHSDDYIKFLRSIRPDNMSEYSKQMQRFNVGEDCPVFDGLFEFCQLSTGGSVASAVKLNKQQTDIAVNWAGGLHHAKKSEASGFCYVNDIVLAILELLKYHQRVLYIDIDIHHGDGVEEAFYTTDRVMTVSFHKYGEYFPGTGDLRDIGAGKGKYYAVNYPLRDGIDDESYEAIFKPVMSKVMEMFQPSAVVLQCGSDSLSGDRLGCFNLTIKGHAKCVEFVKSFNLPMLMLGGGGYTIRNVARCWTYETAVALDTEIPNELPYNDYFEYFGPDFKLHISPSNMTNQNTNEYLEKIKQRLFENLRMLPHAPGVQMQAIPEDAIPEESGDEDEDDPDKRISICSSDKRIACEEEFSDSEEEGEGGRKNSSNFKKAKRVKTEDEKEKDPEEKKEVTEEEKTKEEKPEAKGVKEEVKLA
RORγt (endogenous, human Th17 cells) (P51449-2, form named): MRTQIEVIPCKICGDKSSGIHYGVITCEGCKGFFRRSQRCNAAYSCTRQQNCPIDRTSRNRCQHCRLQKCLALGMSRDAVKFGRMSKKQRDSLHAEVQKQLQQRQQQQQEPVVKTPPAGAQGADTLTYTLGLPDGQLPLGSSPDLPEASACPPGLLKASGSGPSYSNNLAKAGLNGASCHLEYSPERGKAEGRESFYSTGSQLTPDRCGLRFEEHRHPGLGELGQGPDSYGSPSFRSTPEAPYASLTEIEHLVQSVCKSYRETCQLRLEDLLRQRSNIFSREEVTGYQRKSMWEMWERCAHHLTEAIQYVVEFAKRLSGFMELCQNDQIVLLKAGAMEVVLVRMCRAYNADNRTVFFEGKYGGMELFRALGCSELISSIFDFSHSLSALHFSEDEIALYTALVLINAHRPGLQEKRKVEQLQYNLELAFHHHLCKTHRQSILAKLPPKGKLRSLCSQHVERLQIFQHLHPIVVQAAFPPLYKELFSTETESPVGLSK

Key:
[1] = target: HA-tagged p300 (UniProt Q09472); test: co-IP; tagged proteins cotransfected into HEK293T cells, harvested 48 h after transfection; lysis buffer 50 mM Tris-HCl pH 7.5, 150 mM NaCl, 1 mM Na2EDTA, 1% NP40, 0.5% NaDOC, 10% glycerol; IP with anti-tag antibody (anti-HA; anti-Myc or anti-Flag) and protein A/G-agarose at 4 °C, western blot
[2] = target: Myc-tagged HDAC1 (UniProt Q13547); test: as above
[3] = target: HDAC1 (endogenous, human Th17 cells) (human (endogenous in Th17 cells)) (UniProt Q13547); test: co-IP; endogenous IP from human Th17 cells, western blot
[4] = target: p300 (endogenous, human Th17 cells) (human (endogenous in Th17 cells)) (UniProt Q09472); test: as above

Substance	binding [1]	binding [2]	binding [3]	binding [4]
Flag-tagged RORγt (from UniProt P51449-2 1-497)	binds	binds	–	–
RORγt (endogenous, human Th17 cells) (from UniProt P51449-2 1-497)	–	–	binds	binds
